Source: PubChem BioAssay AID1671190 (National Center for Advancing Translational Sciences (NCATS), 2021)
“And” between values parts separate entries of the source, which are not always exact repeats. Equal entries are not always repeated. In all, about 580,000 compounds went through this assay and about 6,100 (1.1%) were called active. The shares of active, inactive and inconclusive entries below differ from those in the screen. Calls follow the shape of the dose curve; as a rule, active = well fitted inhibition curve with a large enough effect; inconclusive = small, poorly fitted or top-dose-only effect, or another doubt; inactive = no such curve, though single readings can be large or run the other way. Potencies of inconclusive entries are doubtful fits and often do not repeat.

Amino acid sequences for entries named in this document (tags omitted).
UniProt P18054, whole entry, looked up: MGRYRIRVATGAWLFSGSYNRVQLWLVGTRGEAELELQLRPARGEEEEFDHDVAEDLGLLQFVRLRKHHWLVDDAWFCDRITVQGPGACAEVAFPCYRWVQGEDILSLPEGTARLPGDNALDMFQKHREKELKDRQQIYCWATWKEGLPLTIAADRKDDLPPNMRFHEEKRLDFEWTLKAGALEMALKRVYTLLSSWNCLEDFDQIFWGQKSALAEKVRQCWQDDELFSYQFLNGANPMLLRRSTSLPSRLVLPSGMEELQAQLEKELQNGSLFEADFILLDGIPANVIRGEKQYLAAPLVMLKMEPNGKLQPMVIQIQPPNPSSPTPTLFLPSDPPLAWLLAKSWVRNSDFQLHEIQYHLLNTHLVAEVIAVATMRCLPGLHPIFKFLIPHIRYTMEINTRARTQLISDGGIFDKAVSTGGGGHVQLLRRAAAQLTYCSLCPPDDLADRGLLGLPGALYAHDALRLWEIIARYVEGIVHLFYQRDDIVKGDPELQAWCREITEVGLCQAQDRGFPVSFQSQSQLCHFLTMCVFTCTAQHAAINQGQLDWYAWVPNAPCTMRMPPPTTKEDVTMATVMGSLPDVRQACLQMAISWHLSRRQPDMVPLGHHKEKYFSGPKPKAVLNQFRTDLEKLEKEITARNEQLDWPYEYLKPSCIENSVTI

Target: Polyunsaturated fatty acid lipoxygenase ALOX12 (Homo sapiens) (UniProt P18054)
Assay: Primary qHTS assay for inhibitors of human arachidonate 12S-lipoxygenase (ALOX12): Round 2
Conditions: purified 12hLO, xylenol orange hydroperoxide absorbance; activity change, negative = inhibition: at 108 µM (top of the series) unless noted
Procedure, shortened: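 Purified human 12hLO at 150 nM in 25 mM Hepes, 0.01% Triton X-100, pH 7.0, preincubated 15 min at room temperature with compound. Reaction started with 40 uM arachidonic acid, 30 min at room temperature. Hydroperoxide measured by Fe-xylenol orange, 573/405 nm absorbance ratio.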
% is scaled to controls: 0 for no effect and ±100 for the full control effect; potency is read from the fitted curve at half-maximal effect.

| Structure (SMILES) | activity change, negative = inhibition | Potency |
| --- | --- | --- |
| CN(C)C(CNC(=O)c1cc(S(=O)(=O)N2CCOCC2)ccc1Cl)c1cccs1 (centres undefined) | inactive: 30.9% | – |
| CC(C)/C=N/Nc1ccc(S(N)(=O)=O)cc1[N+](=O)[O-] | inactive: -32.6% | – |
| CCCCn1c(=O)[nH]c(=O)c2c1nc(CN1CCOC(C)C1)n2C (centres undefined) | – | inconclusive: 141 µM [inhibitor, single point] |
| Cc1cc(C)nc(NS(=O)(=O)c2ccc(NS(=O)(=O)c3ccc(C#N)cc3)cc2)n1 | inactive: 0.715% | – |
| COc1ccc(CNC(=O)Cc2c(C)c3ccc(OC)c(OC)c3oc2=O)c(OC)c1 | – | inconclusive: 89.1 µM [inhibitor, partial curve, poor fit] |
| O=C(NC1CCN(Cc2ccccc2)CC1)c1ccc2c(c1)[nH]c(=O)n2Cc1ccc(F)cc1 | inactive: -53.3% | – |
| COc1cc(C(=S)N2CCN(C(c3ccccc3)c3ccccc3)CC2)cc(OC)c1O | – | inconclusive: 35.5 µM [inhibitor, partial curve, poor fit] |
| COc1cc(OC)c(NC(=S)Nc2cc(Cl)cc(Cl)c2)cc1Cl | – | inconclusive: 50.1 µM [inhibitor, partial curve, poor fit] |
| CCN(Cc1cc(C)[nH]n1)CC1CCCN(CCc2cccc(OC)c2)C1 (centres undefined) | – | inconclusive: 12.6 µM [inhibitor, full curve, poor fit] |
| CSc1ccccc1C(=O)NCC(C)C | inactive: -1.74% | – |
| O=C(Nc1ccccc1)Nc1ccc(Cl)c([N+](=O)[O-])c1 | – | inconclusive: 89.1 µM [inhibitor, partial curve, poor fit] |
| Cc1cc2c(sc3ccccc32)c(C)n1 | – | inconclusive: 7.08 µM [inhibitor, full curve] |
| CCOC(=O)c1ccccc1NC1OC(=O)c2ccccc21 (centres undefined) | inactive: 0% | – |
| CN(C)CCCNc1nc(-c2ccccc2)nc2ccccc12 | – | inconclusive: 35.5 µM [inhibitor, partial curve, poor fit] |
| COc1cccc(CNC(=O)Cn2c(=O)oc3cc(S(=O)(=O)N4CCC(C)CC4)ccc32)c1 | inactive: -35.4% | – |
| COc1ccc2c(CN3CCCCC3)cc(=O)oc2c1 | – | inconclusive: 141 µM [inhibitor, single point] and inconclusive: 56.2 µM [inhibitor, partial curve, poor fit] |
| CN1CCCCC1CCn1cnc2c1c(=O)n(C)c(=O)n2C (centres undefined) | – | inconclusive: 112 µM [inhibitor, single point] |
| O=C(O)CNCc1cccc2ccccc12 | – | inconclusive: 1.78 µM [inhibitor, full curve] |
| Cc1cccc(OCC(=O)NCc2nnc3ccc(-c4ccc(F)cc4)nn23)c1 | inactive: 7.26% | – |
| CCOc1cccc(CNC(=O)Cn2c(C)ccc(NC(=O)NC)c2=O)c1 | inactive: 17.6% | – |
| Cc1c(CBr)[n+](=O)c2c(n1[O-])C(Br)CCC2Br (centres undefined) | inactive: -13.8% | – |
| COc1ccc(N=Nc2[nH]c3ccc(C)cc3c2O)cc1 | – | inconclusive: 39.8 µM [inhibitor, partial curve, poor fit] |

Random excerpt: 3 records from the list

| Structure (SMILES) | activity change, negative = inhibition | Potency |
| --- | --- | --- |
| O=C(O)CNCc1cccc2ccccc12 | – | inconclusive: 1.78 µM [inhibitor, full curve] |
| CN(C)CCCNc1nc(-c2ccccc2)nc2ccccc12 | – | inconclusive: 35.5 µM [inhibitor, partial curve, poor fit] |
| COc1cccc(CNC(=O)Cn2c(=O)oc3cc(S(=O)(=O)N4CCC(C)CC4)ccc32)c1 | inactive: -35.4% | – |

(next part)

| Structure (SMILES) | activity change, negative = inhibition | Potency |
| --- | --- | --- |
| Cc1noc(C)c1[S+](=O)([O-])N1CCC(c2nnc3n2C(C(=O)O)CC3)CC1 (centres undefined) | – | inconclusive: 8.91 µM [inhibitor, full curve, poor fit] |
| CC(C)(C)C(C)(O)C#CCN1CCCC1 (centres undefined) | – | inconclusive: 28.2 µM [inhibitor, partial curve, poor fit] |
| CCC(C)NCc1ccccc1 (centres undefined) | inactive: 8.12% | – |
| COCCCNc1ncnc2c1CN(C1CCNC1)C(=O)CN2C (centres undefined) | – | inconclusive: 15.8 µM [inhibitor, full curve] |
| Cc1ccc(-c2nc(NC(=O)c3cc(C(C)(C)C)nn3C)sc2C)cc1Cl | – | inconclusive: 79.4 µM [inhibitor, single point] |
| O=C(NCc1ccc(F)cc1)C1CCN(C(=O)c2cnn(-c3ccccc3)c2-n2cccc2)CC1 | – | inconclusive: 44.7 µM [inhibitor, partial curve, poor fit] |
| COCC(C)n1c(C)cc(C(=O)COc2ccc(S(=O)(=O)N3CCOCC3)cc2Cl)c1C (centres undefined) | – | inconclusive: 100 µM [inhibitor, partial curve, poor fit] |
| C=CCNc1oc(/C=C/c2ccccc2)nc1C#N | – | inconclusive: 39.8 µM [inhibitor, partial curve, poor fit] |
| Cc1cccc2sc(N(CCCN(C)C)C(=O)COc3ccc(Cl)cc3)nc12 | – | inconclusive: 44.7 µM [inhibitor, partial curve] |
| C=C(C)CNC(=S)NNC(=O)CCn1c2cc(Cl)ccc2c2ccc(Cl)cc21 | – | inconclusive: 56.2 µM [inhibitor, partial curve, poor fit] |
| CCn1c(=S)[nH]c2scc(-c3cccs3)c2c1=O | – | inconclusive: 44.7 µM [inhibitor, partial curve, poor fit] |
| Cc1cc(-c2cc(NC=O)c3ncc(-c4cccc(C(=O)NCCN(C)C)c4)n3c2)cc(C)c1O | inactive: -22.4% | – |
| Cc1ccc(Nc2nc(C(=O)OCC(=O)c3ccc(C)cc3)cs2)cc1 | – | inconclusive: 5.62 µM [inhibitor, full curve, poor fit] |
| CC1CCc2c(sc(NC(=O)c3ccccc3OC(F)F)c2C(N)=O)C1 (centres undefined) | – | inconclusive: 50.1 µM [inhibitor, full curve, poor fit] |
| O=C(Nc1ccccc1)N1CCC2(CC1)C(=O)NCN2Cc1ccc(Cl)cc1 | inactive: -1.95% | – |
| Cc1cc(C)c2c(C)c(C(=O)Nc3cccc4cccnc34)oc2c1 | inactive: 14% | – |
| O=S(CCN1CCc2ccccc2C1)c1ccccc1 (centres undefined) | – | inconclusive: 100 µM [inhibitor, single point] |
| COCCNc1nc(NCCCN2CCCC2=O)c2sccc2n1 | inactive: -7.37% | – |
| C[C@H](CO)N1C[C@H](C)[C@H](CN(C)S(=O)(=O)c2cccs2)Oc2ncc(-c3cc4ccccc4o3)cc2C1=O | – | inconclusive: 50.1 µM [inhibitor, partial curve, poor fit] |
| Cc1ccc(-c2cc(-c3ccc(C)o3)nc(N)c2C#N)cc1 | – | active: 1 µM |
| Cc1ccccc1N(Cc1cc(=O)[nH]c2ccccc12)C(=O)C(C)C | – | inconclusive: 112 µM [inhibitor, single point] |
| O=C(Cn1ncc2c3ccccc3n(Cc3ccccc3F)c2c1=O)NCCN1CCOCC1 | inactive: 5.12% | – |
